No constants are given. Whether binding was seen depends on the method and setting. In cells and extracts the contact can be indirect. These calls come from enrichment with a bait or labelling near it, and not all partners need be listed.
B1: ras GTPase-activating protein-binding protein 2 (G3BP2), endogenous (protein, UniProt Q9UN86 1-482)
chain: MVMEKPSPLLVGREFVRQYYTLLNKAPEYLHRFYGRNSSYVHGGVDASGKPQEAVYGQNDIHHKVLSLNFSECHTKIRHVDAHATLSDGVVVQVMGLLSNSGQPERKFMQTFVLAPEGSVPNKFYVHNDMFRYEDEVFGDSEPELDEESEDEVEEEQEERQPSPEPVQENANSGYYEAHPVTNGIEEPLEESSHEPEPEPESETKTEELKPQVEEKNLEELEEKSTTPPPAEPVSLPQEPPKAFSWASVTSKNLPPSGTVSSSGIPPHVKAPVSQPRVEAKPEVQSQPPRVREQRPRERPGFPPRGPRPGRGDMEQNDSDNRRIIRYPDSHQLFVGNLPHDIDENELKEFFMSFGNVVELRINTKGVGGKLPNFGFVVFDDSEPVQRILIAKPIMFRGEVRLNVEEKKTRAARERETRGGGDDRRDIRRNDRGPGGPRGIVGGGMMRDRDGRGPPPRGGMAQKLGSGRGTGQMEGRFTGQRR

Sequences of proteins named here, by UniProt entry; tags and fusion partners are left off.
UniProt P51116: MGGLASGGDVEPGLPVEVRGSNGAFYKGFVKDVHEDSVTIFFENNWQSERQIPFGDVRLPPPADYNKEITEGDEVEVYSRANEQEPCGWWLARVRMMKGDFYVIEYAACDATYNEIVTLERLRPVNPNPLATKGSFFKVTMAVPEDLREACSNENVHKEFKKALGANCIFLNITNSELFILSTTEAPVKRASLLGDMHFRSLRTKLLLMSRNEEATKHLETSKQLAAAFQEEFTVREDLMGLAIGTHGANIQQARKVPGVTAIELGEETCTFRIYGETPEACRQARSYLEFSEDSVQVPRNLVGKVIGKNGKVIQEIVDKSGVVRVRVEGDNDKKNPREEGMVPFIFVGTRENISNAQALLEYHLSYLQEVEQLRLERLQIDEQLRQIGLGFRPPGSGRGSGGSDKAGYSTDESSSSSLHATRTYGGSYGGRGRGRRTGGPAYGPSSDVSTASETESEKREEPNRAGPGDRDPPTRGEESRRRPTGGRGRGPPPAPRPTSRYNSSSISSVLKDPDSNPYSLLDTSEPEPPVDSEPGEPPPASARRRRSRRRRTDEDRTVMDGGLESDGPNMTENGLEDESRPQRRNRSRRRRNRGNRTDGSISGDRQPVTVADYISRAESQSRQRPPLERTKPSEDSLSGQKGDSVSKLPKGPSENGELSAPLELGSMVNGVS
UniProt Q99873: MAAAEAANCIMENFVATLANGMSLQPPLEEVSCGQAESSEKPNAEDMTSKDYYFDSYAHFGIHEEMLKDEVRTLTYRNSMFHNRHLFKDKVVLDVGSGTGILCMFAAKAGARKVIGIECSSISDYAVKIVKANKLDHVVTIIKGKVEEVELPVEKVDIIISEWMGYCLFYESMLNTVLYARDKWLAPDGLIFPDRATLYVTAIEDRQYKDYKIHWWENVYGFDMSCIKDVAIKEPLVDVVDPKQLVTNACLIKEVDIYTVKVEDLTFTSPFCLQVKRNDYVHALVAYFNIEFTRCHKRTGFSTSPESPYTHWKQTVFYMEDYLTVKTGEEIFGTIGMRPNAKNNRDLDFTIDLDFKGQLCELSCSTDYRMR

Molecular target: Flag-tagged full-length human UBAP2L, wild type (human) (UniProt Q14157)
Experiment: affinity purification with mass spectrometry; HEK293 cells transfected with Flag-UBAP2L or Flag empty plasmid; IP with a Flag antibody, SDS-PAGE, Coomassie blue, bands differing from the Flag control analysed by MS

binding, binds:
fragile X mental retardation syndrome-related protein 2 (FXR2), endogenous (from UniProt P51116 1-673)
protein arginine methyltransferase PRMT1, endogenous (from UniProt Q99873 1-371) (enzyme)
B1

— PMC7205891
